PMC12800062
No constants are given. Whether binding was seen depends on the method and setting. In cells and extracts the contact can be indirect. Some results given as binding are weak or reduced against the parent protein; the word gives no strength.

Legend:
[1] = biological target: T1, KRT10 (mouse (in primary FAPs from C57BL/6 mice)) (UniProt P02535); experiment: co-IP; CoIP in FAPs with immunoblot, both directions (precipitation of KRT10, blot for TGFBR3; precipitation of TGFBR3, blot for KRT10); input as control; n = 3
T1 sequence: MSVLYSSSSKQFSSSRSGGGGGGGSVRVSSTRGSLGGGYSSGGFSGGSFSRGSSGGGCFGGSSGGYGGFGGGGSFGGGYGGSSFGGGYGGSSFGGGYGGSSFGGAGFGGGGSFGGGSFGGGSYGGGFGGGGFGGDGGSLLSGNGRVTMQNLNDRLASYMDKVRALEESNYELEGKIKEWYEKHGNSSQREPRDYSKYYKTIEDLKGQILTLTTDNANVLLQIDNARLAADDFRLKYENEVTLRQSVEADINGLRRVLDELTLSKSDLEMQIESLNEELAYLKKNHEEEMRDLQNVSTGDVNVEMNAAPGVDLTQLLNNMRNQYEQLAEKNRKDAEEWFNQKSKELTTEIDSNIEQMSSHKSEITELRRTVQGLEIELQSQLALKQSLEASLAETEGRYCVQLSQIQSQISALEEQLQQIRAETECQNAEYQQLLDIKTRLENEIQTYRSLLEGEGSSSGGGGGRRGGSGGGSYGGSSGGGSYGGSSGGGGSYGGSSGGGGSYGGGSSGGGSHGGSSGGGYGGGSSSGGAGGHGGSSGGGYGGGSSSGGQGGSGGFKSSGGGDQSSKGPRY

[2] = biological target: T2, TGFBR3 (mouse (in primary FAPs from C57BL/6 mice)) (UniProt O88393); experiment: as above
T2 sequence: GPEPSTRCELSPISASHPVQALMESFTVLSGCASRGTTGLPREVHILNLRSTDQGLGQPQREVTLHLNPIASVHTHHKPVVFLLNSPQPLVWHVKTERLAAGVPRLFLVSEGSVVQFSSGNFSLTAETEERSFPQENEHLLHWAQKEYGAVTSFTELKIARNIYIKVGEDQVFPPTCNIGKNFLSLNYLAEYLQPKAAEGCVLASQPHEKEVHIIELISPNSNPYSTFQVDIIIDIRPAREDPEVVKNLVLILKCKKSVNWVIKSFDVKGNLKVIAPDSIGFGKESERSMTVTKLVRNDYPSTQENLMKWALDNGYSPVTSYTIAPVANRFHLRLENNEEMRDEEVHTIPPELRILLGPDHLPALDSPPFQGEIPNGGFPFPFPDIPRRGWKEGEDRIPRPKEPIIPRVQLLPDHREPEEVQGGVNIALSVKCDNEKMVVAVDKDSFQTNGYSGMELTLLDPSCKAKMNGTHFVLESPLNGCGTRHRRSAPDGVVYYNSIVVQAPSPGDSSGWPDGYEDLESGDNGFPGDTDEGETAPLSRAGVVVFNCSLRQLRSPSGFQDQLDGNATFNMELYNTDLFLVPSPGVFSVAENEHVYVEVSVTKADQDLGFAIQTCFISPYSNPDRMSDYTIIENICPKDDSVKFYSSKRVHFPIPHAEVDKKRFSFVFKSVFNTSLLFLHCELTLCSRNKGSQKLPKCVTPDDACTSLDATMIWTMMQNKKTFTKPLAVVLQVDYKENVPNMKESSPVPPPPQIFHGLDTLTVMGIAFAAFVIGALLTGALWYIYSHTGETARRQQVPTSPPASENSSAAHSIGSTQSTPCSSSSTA

B1: TGFBR3 (receptor, UniProt O88393 23-850)
chain: GPEPSTRCELSPISASHPVQALMESFTVLSGCASRGTTGLPREVHILNLRSTDQGLGQPQREVTLHLNPIASVHTHHKPVVFLLNSPQPLVWHVKTERLAAGVPRLFLVSEGSVVQFSSGNFSLTAETEERSFPQENEHLLHWAQKEYGAVTSFTELKIARNIYIKVGEDQVFPPTCNIGKNFLSLNYLAEYLQPKAAEGCVLASQPHEKEVHIIELISPNSNPYSTFQVDIIIDIRPAREDPEVVKNLVLILKCKKSVNWVIKSFDVKGNLKVIAPDSIGFGKESERSMTVTKLVRNDYPSTQENLMKWALDNGYSPVTSYTIAPVANRFHLRLENNEEMRDEEVHTIPPELRILLGPDHLPALDSPPFQGEIPNGGFPFPFPDIPRRGWKEGEDRIPRPKEPIIPRVQLLPDHREPEEVQGGVNIALSVKCDNEKMVVAVDKDSFQTNGYSGMELTLLDPSCKAKMNGTHFVLESPLNGCGTRHRRSAPDGVVYYNSIVVQAPSPGDSSGWPDGYEDLESGDNGFPGDTDEGETAPLSRAGVVVFNCSLRQLRSPSGFQDQLDGNATFNMELYNTDLFLVPSPGVFSVAENEHVYVEVSVTKADQDLGFAIQTCFISPYSNPDRMSDYTIIENICPKDDSVKFYSSKRVHFPIPHAEVDKKRFSFVFKSVFNTSLLFLHCELTLCSRNKGSQKLPKCVTPDDACTSLDATMIWTMMQNKKTFTKPLAVVLQVDYKENVPNMKESSPVPPPPQIFHGLDTLTVMGIAFAAFVIGALLTGALWYIYSHTGETARRQQVPTSPPASENSSAAHSIGSTQSTPCSSSSTA
binding [1]: binds

B2: KRT10 (protein, UniProt P02535 1-570)
chain: MSVLYSSSSKQFSSSRSGGGGGGGSVRVSSTRGSLGGGYSSGGFSGGSFSRGSSGGGCFGGSSGGYGGFGGGGSFGGGYGGSSFGGGYGGSSFGGGYGGSSFGGAGFGGGGSFGGGSFGGGSYGGGFGGGGFGGDGGSLLSGNGRVTMQNLNDRLASYMDKVRALEESNYELEGKIKEWYEKHGNSSQREPRDYSKYYKTIEDLKGQILTLTTDNANVLLQIDNARLAADDFRLKYENEVTLRQSVEADINGLRRVLDELTLSKSDLEMQIESLNEELAYLKKNHEEEMRDLQNVSTGDVNVEMNAAPGVDLTQLLNNMRNQYEQLAEKNRKDAEEWFNQKSKELTTEIDSNIEQMSSHKSEITELRRTVQGLEIELQSQLALKQSLEASLAETEGRYCVQLSQIQSQISALEEQLQQIRAETECQNAEYQQLLDIKTRLENEIQTYRSLLEGEGSSSGGGGGRRGGSGGGSYGGSSGGGSYGGSSGGGGSYGGSSGGGGSYGGGSSGGGSHGGSSGGGYGGGSSSGGAGGHGGSSGGGYGGGSSSGGQGGSGGFKSSGGGDQSSKGPRY
binding [2]: binds
